Experimental data published in PMC8079276.
Results are given in words; binding and its absence hold for the method and conditions named. In cells and extracts the contact can be indirect. Here binding means that the protein was enriched with, or labelled near, the bait; the list need not be complete. Where a sequence is shown, tags or fusion partners need not be part of it.

T1: UDP-N-acetylglucosamine-peptide N-acetylglucosaminyltransferase (mouse (endogenous in MEFs)) (UniProt Q8CGY8)
T1 sequence: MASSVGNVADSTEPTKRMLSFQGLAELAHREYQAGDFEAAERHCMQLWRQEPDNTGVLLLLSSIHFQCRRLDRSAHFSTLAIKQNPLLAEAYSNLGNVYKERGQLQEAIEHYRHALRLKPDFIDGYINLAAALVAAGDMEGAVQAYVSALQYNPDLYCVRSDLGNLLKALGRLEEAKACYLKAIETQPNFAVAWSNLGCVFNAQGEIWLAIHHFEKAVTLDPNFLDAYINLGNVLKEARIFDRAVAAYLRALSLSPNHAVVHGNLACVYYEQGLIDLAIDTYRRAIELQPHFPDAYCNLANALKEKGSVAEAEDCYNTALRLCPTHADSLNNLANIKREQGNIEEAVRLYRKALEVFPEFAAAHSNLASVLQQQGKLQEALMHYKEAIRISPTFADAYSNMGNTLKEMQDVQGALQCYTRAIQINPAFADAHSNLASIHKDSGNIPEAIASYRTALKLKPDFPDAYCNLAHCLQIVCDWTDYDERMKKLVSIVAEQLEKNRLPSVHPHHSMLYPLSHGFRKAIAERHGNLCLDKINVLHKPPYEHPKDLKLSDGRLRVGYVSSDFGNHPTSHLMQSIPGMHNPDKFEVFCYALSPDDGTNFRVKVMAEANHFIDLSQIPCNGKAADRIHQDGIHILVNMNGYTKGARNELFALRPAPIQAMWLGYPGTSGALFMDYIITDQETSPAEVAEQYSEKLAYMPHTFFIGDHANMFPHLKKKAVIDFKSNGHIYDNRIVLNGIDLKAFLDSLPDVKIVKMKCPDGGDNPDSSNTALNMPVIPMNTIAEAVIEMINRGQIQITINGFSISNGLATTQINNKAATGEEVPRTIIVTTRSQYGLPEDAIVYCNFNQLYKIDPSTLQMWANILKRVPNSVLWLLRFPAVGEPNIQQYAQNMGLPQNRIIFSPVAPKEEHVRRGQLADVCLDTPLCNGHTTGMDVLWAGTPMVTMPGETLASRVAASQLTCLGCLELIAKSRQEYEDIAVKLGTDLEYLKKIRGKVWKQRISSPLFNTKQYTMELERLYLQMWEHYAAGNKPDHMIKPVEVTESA

B1: ferrochelatase (protein, UniProt P22315 54-422)
chain: TTKPQAQPERRKPKTGILMLNMGGPETLGEVQDFLQRLFLDRDLMTLPIQNKLAPFIAKRRTPKIQEQYRRIGGGSPIKMWTSKQGEGMVKLLDELSPATAPHKYYIGFRYVHPLTEEAIEEMERDGLERAIAFTQYPQYSCSTTGSSLNAIYRYYNEVGQKPTMKWSTIDRWPTHPLLIQCFADHILKELNHFPEEKRSEVVILFSAHSLPMSVVNRGDPYPQEVGATVHKVMEKLGYPNPYRLVWQSKVGPVPWLGPQTDEAIKGLCERGRKNILLVPIAFTSDHIETLYELDIEYSQVLAQKCGAENIRRAESLNGNPLFSKALADLVHSHIQSNKLCSTQLSLNCPLCVNPVCRKTKSFFTSQQL
B2: asparagine synthetase (protein, UniProt Q61024 1-561)
chain: MCGIWALFGSDDCLSVQCLSAMKIAHRGPDAFRFENVNGYTNCCFGFHRLAVVDPLFGMQPIRVRKYPYLWLCYNGEIYNHKALQQRFEFEYQTNVDGEIILHLYDKGGIEKTICMLDGVFAFILLDTANKKVFLGRDTYGVRPLFKAMTEDGFLAVCSEAKGLVSLKHSTTPFLKVEPFLPGHYEVLDLKPNGKVASVEMVKYHHCTDEPLHAIYDSVEKLFPGFDLETVKNNLRILFDNAIKKRLMTDRRIGCLLSGGLDSSLVAASLLKQLKEAQVQYPLQTFAIGMEDSPDLLAARKVANYIGSEHHEVLFNSEEGIQALDEVIFSLETYDITTVRASVGMYLISKYIRKNTDSVVIFSGEGSDELTQGYIYFHKAPSPEKAEEESERLLKELYLFDVLRADRTTAAHGLELRVPFLDHRFSSYYLSLPPDMRIPKNGIEKHLLRETFEDCNLLPKEILWRPKEAFSDGITSVKNSWFKILQDYVEHQVDDEMMSAASQKFPFNTPKTKEGYFYRQIFERHYPGRADWLTHYWMPKWINATDPSARTLTHYKSAAKA
B3: phosphoenolpyruvate carboxykinase 2 (protein, UniProt Q8BH04 33-640)
chain: LSGDMSQLPAGVRDFVARSAHLCQPEGIHICDGTEAENTAILALLEEQGLIRKLPKYKNCWLARTDPKDVARVESKTVIVTPSQRDTVPLLAGGARGQLGNWMSPDEFQRAVDERFPGCMQGRIMYVLPFSMGPVGSPLSRIGVQLTDSAYVVASMRIMTRLGTPVLQALGDGDFIKCLHSVGQPLTGHGDPVGQWPCNPEKTLIGHVPDQREIVSFGSGYGGNSLLGKKCFALRIASRLARDEGWLAEHMLILGITNPAGKKRYVAAAFPSACGKTNLAMMRPALPGWKVECVGDDIAWMRFDSEGQLRAINPENGFFGVAPGTSAATNPNAMATIQSNTLFTNVAETSDGGVYWEGIDQPLPPGVTITSWLGKPWKPGDKEPCAHPNSRFCVPARQCPIMDPAWEAPEGVPIDAIIFGGRRPKGVPLVYEAFNWRHGVFVGSAMRSESTAAAEHKGKTIMHDPFAMRPFFGYNFGRYLEHWLSMEGQKGARLPRIFHVNWFRRDEAGRFLWPGFGENARVLDWICRRLEGEDSAQETPIGLVPKEGALDLSGLSAVDTSQLFSIPKDFWEQEVRDIRGYLTEQVNQDLPKEVLAELEALEGRVQKM
B4: tyrosine-protein phosphatase nonreceptor type 14 (protein, UniProt Q62130 1-1189)
chain: MPFGLKLRRTRRYNVLSKNCFVTRIRLLDSNVIECTLSVESTGQECLEAVAQRLELRETHYFGLWFLSKSQQARWVELEKPLKKHLDKFANEPLLFFGVMFYVPNVSRLQQEATRYQYYLQVKKDVLEGRLRCSLEQVIRLAGLAVQADFGDYNQFDSQEFLREYVLFPMDLAMEEAALEELTQKVAQEHKAHSGILPAEAELMYINEVERLDGFGQEIFPVKDSHGNSVHLGIFFMGIFVRNRVGRQAVIYRWNDIGSVTHSKAAILLELIDKEETALFHTDDIENAKYISRLFTTRHKFYKQNKICTEQSNSPPPIRRQPTWSRSSLPRQQPYILPPMHVQCSEHYSETHTSQDSIFPGNEEALYCRSHNSLDLNYLNGTVTNGSVCSVHSVNSLSCSQSFIQASPVSSNLSIPGSDIMRADYIPSHRHSTIIVPSYRPTPDYETVMRQMKRGLMHADSQSRSLRNLNIINTHAYNQPEELVYSQPEMRERHPYTVPYAHQGCYGHKLVSPSDQMNPQNCAMPIKPGASSISHTVSTPELANMQLQGAQHYSTAHMLKNYLFRPPPPYPRPRPATSTPDLASHRHKYVSGSSPDLVTRKVQLSVKTFQEDSSPVVHQSLQEVSEPLTATKHHGGGGGTVNKRHSLEVMNSMVRGMEAMTLKSLNIPMARRNTLREQGPSEETGGHEVHGLPQYHHKKTFSDATMLIHSSESEEEEETLEAAPQVPVLREKVEYSAQLQAALARIPNRPPPEYPGPRKSVSNGALRQDQGTPLPAMARCRVLRHGPSKALSVSRAEQLAVNGASLGPSISEPDLTSVKERVKKEPVKERPVSEMFSLEDSIIEREMMIRNLEKQKMTGPQAQKRPLMLAALNGLSVARVSGREDGHHDATRVPIDERLRALKKKLEDGMVFTEYEQIPNKKANGVFSTATLPENAERSRIREVVPYEENRVELIPTKENNTGYINASHIKVVVGGSEWHYIATQGPLPHTCHDFWQMVWEQGVNVIAMVTAEEEGGRTKSHRYWPKLGSKHSSATYGKFKVTTKFRTDSGCYATTGLKVKHLLSGQERTVWHLQYTDWPHHGCPEDVQGFLSYLEEIQSVRRHTNSVLEGIRTRHPPIVVHCSAGVGRTGVVILSELMIYCLEHNEKVEVPTMLRFLREQRMFMIQTIAQYKFVYQVLVQFLQNSRLI
B5: Aimp1 (protein, UniProt P31230 1-310)
chain: MATNDAVLKRLEQKGAEADQIIEYLKQQVALLKEKAILQATMREEKKLRVENAKLKKEIEELKQELILAEIHNGVEQVRVRLSTPLQTNCTASESVVQSPSVATTASPATKEQIKAGEEKKVKEKTEKKGEKKEKQQSAAASTDSKPIDASRLDLRIGCIVTAKKHPDADSLYVEEVDVGEAAPRTVVSGLVNHVPLEQMQNRMVVLLCNLKPAKMRGVLSQAMVMCASSPEKVEILAPPNGSVPGDRITFDAFPGEPDKELNPKKKIWEQIQPDLHTNAECVATYKGAPFEVKGKGVCRAQTMANSGIK
B6: ATPase family AAA domain–containing protein 2 (protein, UniProt Q8CDM1 1-1040)
chain: MSLLKMRRHAIHSSDSTSSSSSEDDCFERRTKRNRNRAINRCLPLNFRKDEIRGIYKDRMKIGASLADVDPMQLDTSVRFDSVGGLSSHIAALKEMVVFPLLYPEVFEKFKIQPPRGCLFYGPPGTGKTLVARALANECSRGDKRVAFFMRKGADCLSKWVGESERQLRLLFDQAYQMRPAIIFFDEIDGLAPVRSSRQDQIHSSIVSTLLALMDGLDSRGEIVVIGATNRLDSIDPALRRPGRFDREFLFSLPDKNARKEILKIHTRDWNPKPVDMFLEELAEHCVGYCGADIKSICAEAALCALRRRYPQIYTTSEKLQLDLSSITISAKDFEAALQKIRPASQRAVTSPGQALSAIVKPLLQNTVHRILDALQKVFPHVEVGTNKSLNSDVSCPFLESDLAYSDDDTPSVYENGLSQKENLNFLHLNRNACYQPMSFRPRLLIVGEPGFGQSSHLAPAVIHALEKFTVYTLDIPVLFGISTTSPEEACSQMIREAKRTAPSIVYVPHIHLWWEIVGPTLKATFTTLLQTIPSFAPVLLLATSEKPYSALPEEVQELFTHDYGEIFNVQLPDKEERTKFFEDLILKQASKPPVSQKKAVLQALEVLPVAPPPEPRPLTAEEVKRLEEQEEDTFRELRIFLRNVTHRLAIDKRFRVFTKPVDPDEVPDYVTVIKQPMDLSSVISKIDLHKYLTVKDYLKDIDLICSNALEYNPDRDPGDRLIRHRACALRDTAYAIIKEELDEDFEQLCEEIQESRKKRGCSSSKYAPSYYHVMPKQNSPPVGDKKPDQEQNEKLKVPCTPVACSTPAQLKRKFHKKSKWHVGTKIKRRKISQAKDNSLNAMNSSSRSDTEDSQHTHAEHTEPGNTDESSVEESDKQNRLESNIDLKNNSSSSNIENELEEPKETTEGTELRKDRIVCRGDASASQVTDIPEDSESKEMDFLRMTLARGSQVEQQELISMEQALAILSQPTPSLVLDHKQLTNILKTVVKKSQKYNIFQLENLYAVISQCIYEHRRDYDKTALVQKMEQAVENFNCSRS

Molecular target: T1, UDP-N-acetylglucosamine-peptide N-acetylglucosaminyltransferase (mouse (endogenous in MEFs))
Assay: affinity purification with mass spectrometry; endogenous OGT immunoprecipitated (antibody AL24, protein G magnetic beads, TCL buffer: 50 mM Tris HCl, 150 mM NaCl, pH 7.5, 1% NP-40, 2 mM EDTA) from a 1:1:1 mix of SILAC-labelled lysates of WT, H2O2-treated (2.5 mM, 1.5 h) and OGT-null MEFs, precleared with rabbit IgG; in-gel trypsin digestion, LC-MS/MS; interactor if log2 WT or H2O2/null >=1 in 2 or more replicates

| binding | Binder |
| --- | --- |
| binds | B1 |
| binds | B2 |
| binds | B3 |
| binds | B4 |
| binds | B5 |
| binds | B6 |
